# Primary screen of a compound library

The chains behind the UniProt entries cited, without tags or fusion partners.
UniProt E9BF75, entry or part of it: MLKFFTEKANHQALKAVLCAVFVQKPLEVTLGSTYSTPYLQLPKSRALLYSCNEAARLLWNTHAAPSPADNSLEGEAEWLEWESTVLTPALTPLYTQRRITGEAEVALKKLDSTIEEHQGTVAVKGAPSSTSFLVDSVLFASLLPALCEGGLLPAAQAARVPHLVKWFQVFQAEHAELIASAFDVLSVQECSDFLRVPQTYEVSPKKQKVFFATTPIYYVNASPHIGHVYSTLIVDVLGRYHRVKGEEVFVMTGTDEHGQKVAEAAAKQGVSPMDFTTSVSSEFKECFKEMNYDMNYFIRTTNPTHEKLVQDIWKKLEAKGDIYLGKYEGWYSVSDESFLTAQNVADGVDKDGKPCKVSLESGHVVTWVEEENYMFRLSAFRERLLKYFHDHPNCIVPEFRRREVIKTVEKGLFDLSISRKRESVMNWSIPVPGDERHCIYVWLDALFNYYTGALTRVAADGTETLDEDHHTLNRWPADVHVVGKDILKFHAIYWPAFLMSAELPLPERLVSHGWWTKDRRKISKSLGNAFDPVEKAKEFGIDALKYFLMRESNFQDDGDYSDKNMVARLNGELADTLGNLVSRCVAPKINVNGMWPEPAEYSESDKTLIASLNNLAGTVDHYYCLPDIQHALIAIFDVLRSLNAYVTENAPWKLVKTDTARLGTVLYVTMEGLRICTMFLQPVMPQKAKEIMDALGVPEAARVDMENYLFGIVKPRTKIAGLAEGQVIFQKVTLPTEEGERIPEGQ

The values are deposited in ChEMBL (CHEMBL3988442, “University of Dundee, Small-Polar-MMV Screening Library” (2021)).

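Primary screen of methionyl-tRNA synthetase; the read-out is not stated. Target: Methionyl-tRNA synthetase (putative), Leishmania donovani (UniProt E9BF75). The test concentration is not given. The values are filed as inhibition. About 68,000 compounds were tested under these conditions; 0.035% (about 24) showed 50% or more at least once.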

All values are in %. How 0% and 100% were set is not recorded. Most values in the screen are low, and negative values occur. This is an unselected part of the compounds tested.

compound | inhibition
COCc1nc2cc(NCc3sc(C)nc3C)ccc2o1 | 8.242
CCc1cc(CNC(=O)NCc2ccc(N3CCCCC3)cc2)on1 | 17
O=C(c1cc[nH]n1)N1CCC2(CC1)CC(Oc1cccnc1)CO2 (stereo not given) | 13.12
O=C(Cc1cccs1)N1CCCCC1c1ccn2ccnc2n1 (stereo not given) | 13.56
CN(C)CCN1CCOCC2(C1)CN(Cc1nccs1)CCO2 (stereo not given) | 2.837
Cn1cc(CNc2cnn(CCO)c2)c(-c2ccncc2)n1 | 14.25
Cc1ccc(OCC(=O)Nc2cnccc2SCCCO)cc1C | 11.35
CC(=O)Nc1cccc(CN2CCCC2C(=O)Nc2nccs2)c1 (stereo not given) | 0.8065
N#Cc1cc2c(=O)n(CC(O)C(F)(F)F)ccc2[nH]c1=O (stereo not given) | 3.2
O=C(CCc1nccs1)N1CCN(c2ccc(Cl)cn2)CC1 | 4.972
COc1ccc(-c2nc3c([nH]2)CCNC3C(=O)O)c2ccc(C)nc12 (stereo not given) | 36.31
CN1CCC(Cc2cnc3ccccc3c2)C1 (stereo not given) | 18.62
CNC(=O)Cn1nc(C(C)C)c2cnn(C(C)(C)C)c2c1=O | 0.3497
CC(C)C1SCC(=O)Nc2c1c(O)nn2C1CCCCC1 (stereo not given) | 5.248
COCCN1CC[C@H](O)[C@@H]1Cc1ccccc1 | 7.884
CC(C)c1ccc(CN2CCCC3(CC2)CN(C)C(=O)O3)cc1 (stereo not given) | 21.57
CSCC(=O)N1C[C@H]2CC[C@@H]1CN(Cc1ccccc1)C2 | 7.389
Cc1nc(Cn2cncc(Br)c2=O)no1 | 0.7732
CN(C)C(=O)Cc1nc(CN2CCCC2Cn2cccn2)cs1 (stereo not given) | 12.39
Cn1cnnc1C1CCCN(C(=O)c2cc(Cl)cc(Cl)c2)C1 (stereo not given) | 18.23
Cn1ncc2c(NCC3CCS(=O)(=O)C3)nc(C3CCCC3)nc21 (stereo not given) | 11.57
CCCNC(=O)Nc1ncc(-c2cccnc2)s1 | 15.43
CC(=O)N1CCN(C(=O)CN2CCCC2Cn2nc(C)cc2C)CC1 (stereo not given) | 1.534
O=C(NCc1ccccc1CN1CCC(O)CC1)Nc1ccccc1 | 20.4
O=C(CCc1ccccc1F)N1CCCC(OCc2cccnc2)C1 (stereo not given) | 14.99
Cc1nc(NC(=O)C(C)N2CCN(c3ccccc3F)CC2)sc1C (stereo not given) | 11.15
O=C(CNC(=O)c1cnc2ccccc2c1O)NCCCn1ccnc1 | 11.08
Cc1ccccc1CS(=O)(=O)Cc1nc(C2CC2)no1 | 7.971
Cc1ccccc1C(C(=O)NCCSC(C)C)N(C)C (stereo not given) | 12.87
CC(C)Nc1cccc(C(=O)NCC(O)c2cccc(F)c2)c1 (stereo not given) | 13.74
CCOC(=O)C1(O)CCN(C(=O)Nc2cccc(F)c2)CC1 | 16.1
COc1ccc(C(=O)NS(=O)(=O)c2ccc(CNC(C)=O)s2)cc1 | 2.799
N#Cc1ccc(NCCC(=O)N2CCCc3ccccc32)nc1 | 16.4
CN(CC1CC1)S(=O)(=O)c1ccc(C(F)(F)F)cc1C#N | 10.87
Cc1cnn(CC2CCCN2C(=O)c2n[nH]c(=O)c3ccccc23)c1 (stereo not given) | 23.2
Cc1cc(-c2cnc(NCc3ccncc3)nc2C(C)C)on1 | 14.06
CSc1ccc(-c2nc(CN3CCC(NC(C)=O)CC3)c(C)o2)cc1 | -8.877
N#CCCCOc1cccnc1NC(=O)Cc1ccccc1F | 10.48
COc1ccnc(N(C)Cc2c(C)noc2C)n1 | -0.8357
CC(C)(C)CCNc1nccc(-c2c[nH][nH]c2=O)n1 | 16.75
Cc1cnc(CN2CCC(N(C)Cc3nnc(C4CC4)n3C)C2)cn1 (stereo not given) | 12.27
O=C([C@H]1CCCO1)N1CCC2(CC1)C(=O)N(CC1CC1)c1ccccc12 | 4.482
O=C(c1ccoc1)N1CCc2ncnc(NCc3ccccn3)c2CC1 | 7.666
CNC(=O)Cc1ccc(NC(=O)NC(C)C(C)C)cc1 (stereo not given) | 5.634
O=C1CCC2(CCN(Cc3ccc(F)cc3)CC2)N1CCN1CCCC1 | 13.78
CCCn1nc(C(=O)NCc2nnc3n2CCC3)ccc1=O | 2.837
CNc1cc(-c2nc(CCN3CCCC3=O)no2)ccn1 | 7.711
O=C1NCC(C(=O)N(Cc2cccc(Br)c2)C2CC2)N1 (stereo not given) | 4.514
CCN(CC)CC[C@H]1CN(C(=O)C(C)(C)C)CC[C@H]1CC(=O)O | 12.09
Cc1nn(C)c2c(N3CCC(C)CC3)nc(C3CC3)nc12 | 8.393
COc1nc2c(cc1C(=O)N(C)Cc1n[nH]c3c1CCCC3)CCC2 | 18.37
Cn1cc(CN2CCC(c3[nH]ncc3S(C)(=O)=O)C2)cn1 (stereo not given) | 7.294
Cc1cc(Cc2ccc(S(=O)(=O)N3CCOCC3)cc2)c(=O)[nH]n1 | 8.257
CCC(=O)N1CCC(O)(c2ncc(OC)nc2OC)CC1 | 13.64
CCCN(Cc1cccnc1)C(=O)C1CCS(=O)(=O)CC1 | 3.136
CCOCC(=O)N1CCc2c(ncnc2N2CCOCC2)C1 | 20.6
COC(=O)C1=NN2C(=NS(=O)(=O)c3ccccc32)N1 | 7.784
CC(C)[C@H](NS(C)(=O)=O)C(=O)NCc1cc(-c2ccccc2)nn1C | 4.612
CC(C)(C)NC[C@@H]1CCC[C@@H]2CN(Cc3csnn3)C[C@@H]21 | 10.65
CC(C)(C)C(NC(=O)CCS(C)(=O)=O)c1ccc(F)cc1F (stereo not given) | 16.72
Cc1cncc(C2CCN(C(=O)CCc3ccnn3C)CC2)n1 | 2.572
Cc1oncc1C(=O)NCc1cc(=O)n2c(n1)CN(CC1CC1)CCC2 | 0.625
CCc1nnc2n1CCN(C(C(N)=O)c1ccc(F)cc1)C2 (stereo not given) | 11.21
CCc1cc(O)n2nc(C3CCN(C(=O)c4cccnc4)CC3)cc2n1 | 3.438
O=C(NCc1cccnc1)[C@H]1C[C@@H]2CCN(c3ccncn3)C[C@H]2O1 | 7.397
O=S(=O)(c1ccc2c(c1)OCCO2)N1CCC(OCc2ccccn2)C1 (stereo not given) | 15.85
O=C(N1CCCC1)N1CCn2c(nnc2C2CCCN2)C1 (stereo not given) | 18.29
CC(C)NC(=O)N1CCc2ncc(CN3CCOCC3)n2CC1 | 11.78
COCCN(Cc1ccccn1)C(=O)CC1OCCc2ccsc21 (stereo not given) | 3.542
Cc1nn(CC(O)CN2CCc3ccccc3C2)c(=O)c(C#N)c1C (stereo not given) | 11.63
COCCC1(C(=O)O)CCCN(C(=O)c2cnc3c(c2)CCCC3)C1 (stereo not given) | 6.272
CN1CCC(N2CC[C@@H]3[C@@H](CCC(=O)N3CCC3=CCCCC3)C2)CC1 | 17.32
CCn1cc(CN2CCC(c3[nH]ncc3S(C)(=O)=O)C2)cn1 (stereo not given) | 13.88

The first 9 entries again:

compound	inhibition
COCc1nc2cc(NCc3sc(C)nc3C)ccc2o1	8.242
CCc1cc(CNC(=O)NCc2ccc(N3CCCCC3)cc2)on1	17
O=C(c1cc[nH]n1)N1CCC2(CC1)CC(Oc1cccnc1)CO2 (stereo not given)	13.12
O=C(Cc1cccs1)N1CCCCC1c1ccn2ccnc2n1 (stereo not given)	13.56
CN(C)CCN1CCOCC2(C1)CN(Cc1nccs1)CCO2 (stereo not given)	2.837
Cn1cc(CNc2cnn(CCO)c2)c(-c2ccncc2)n1	14.25
Cc1ccc(OCC(=O)Nc2cnccc2SCCCO)cc1C	11.35
CC(=O)Nc1cccc(CN2CCCC2C(=O)Nc2nccs2)c1 (stereo not given)	0.8065
N#Cc1cc2c(=O)n(CC(O)C(F)(F)F)ccc2[nH]c1=O (stereo not given)	3.2